# Assay results as given in PubChem BioAssay AID2685 (National Center for Advancing Translational Sciences (NCATS), 2010).
# About 2,100 (0.66%) of roughly 320,000 compounds were called active. This list was built around the results that the source calls inconclusive (neither active nor inactive); the mix of calls is not that of the screen. The call rests on the fitted dose curve; in most records, active means well fitted inhibition curve with a large enough effect in the signal ratio, with a control signal flat (not every such curve was filed as active); inconclusive means small, poorly fitted or top-dose-only effect, or effect the other way, or a change in a side signal; inactive means flat fitted curve, though single readings scatter; the % refers to the signal ratio. Where the call is inconclusive, the potency comes from a doubtful curve fit.
# Experiment: qHTS Assay for Lipid Storage Modulators in Drosophila S3 Cells
# Details: BODIPY lipid droplet fluorescence, 18-24 h, cells fed with added oleic acid; lipid storage change, negative = inhibition: at 46.1 µM (top of the series) unless noted
# How it was run: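 Drosophila S3 cells got compounds at several concentrations plus oleic acid (400 uM solution). Laser-scanning cytometry with 488 nm excitation read lipid droplets at 500-530 nm and cells at 575-640 nm. Percent activity was relative to 20 uM Triacsin C.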
# On the % scale 0 is the no-effect control and ±100 the full control effect; potency means the concentration at half of the fitted maximal effect.
Compound,"lipid storage change, negative = inhibition",Potency
CCOc1ccccc1CNc1nc2nc3c(c(=O)n2[nH]1)CCC3,inconclusive: -4.09%,–
CC(=Nc1ccccc1)C1=C(O)CSC1=O,inconclusive: -25.9%,–
CN(CC(=O)Nn1cnnc1)S(=O)(=O)c1ccc(Br)cc1,inconclusive: -14%,–
CCOc1ccc(/C=N/N2C(C)CCCC2C)cc1 (configuration not stated),inconclusive: -17.3%,–
Cc1sc(NC(=O)CCS(=O)(=O)c2ccccc2)c(C#N)c1C,–,"inconclusive: 0.82 µM [activator, full curve, poor fit]"
CCC(=O)N1CCN(c2ccc(Cl)cc2NC(=O)c2cccc([N+](=O)[O-])c2)CC1,–,"inconclusive: 0.82 µM [activator, single point]"
CCOc1cc(-c2sc(Nc3ccccc3)n[n+]2C)ccc1OC,inconclusive: 30.3%,–
COC(=O)c1c(S(=O)(=O)N2CCOCC2)c(C)n(C)c1C,inconclusive: 17.2%,–
C=CCN(C(=O)c1cccc(C(F)(F)F)c1)C1(C(=O)Nc2ccccc2)CCN(C(C)C)CC1,inconclusive: -26.3%,–
COc1ccc(NS(=O)(=O)c2cccc(C(=O)NCC3CCCO3)c2)cc1 (configuration not stated),inconclusive: 24.4%,–
O=C(c1ccc2nc(N3CCCCC3)sc2c1)N1CCN(Cc2ccc3c(c2)OCO3)CC1,inconclusive: 17.9%,–
CCN(CC)CCNS(=O)(=O)c1ccc2c3c(cccc13)C(=O)N2,–,"inconclusive: 6.51 µM [activator, single point]"
COc1ccc(CCNC(=O)c2cc(Cl)nc3ccccc23)cc1,–,"inconclusive: 0.291 µM [activator, partial curve, poor fit]"
COc1ccc(/C=C(\NC(=O)c2ccccc2)C(=O)NCCN2CCOCC2)cc1,inconclusive: -47.7%,–
Nc1nnc(COc2ccc(Br)cc2Br)s1,inconclusive: 50.5%,–
CCOc1ccc2c(C)c(C)c(=O)oc2c1OCC,–,"inconclusive: 6.51 µM [activator, single point]"
CCOc1ccc(NC(=O)CN(C)C(=O)COc2cccc(CC)c2)cc1OCC,inconclusive: 34.2%,–
Cc1ccccc1NS(=O)(=O)c1ccc(OCCNS(C)(=O)=O)cc1,inconclusive: 41%,–
COc1cc2c(cc1NC(=O)COC(=O)C(CCSC)NC(=O)c1ccccc1Cl)oc1ccccc12 (configuration not stated),inconclusive: -39.6%,–
Oc1ccc(/C=N/Nc2ncc(Br)cn2)c(O)c1,–,"inconclusive: 4.61 µM [falling, single point]"
Cc1cc(C)c(C)c(OCCCCN(C)Cc2ccccc2)c1,–,"inconclusive: 18.4 µM [falling, partial curve, poor fit]"
Fc1ccccc1N1CC(c2ccccc2)C(c2cccs2)=N1 (configuration not stated),–,"inconclusive: 0.082 µM [activator, full curve, poor fit]"
CCc1ccc2[nH]cc(C(=O)OCCOC)c(=O)c2c1,–,"inconclusive: 0.731 µM [falling, full curve]"
O=C(COc1ccccc1Cl)Nc1nc(-c2cccs2)cs1,–,"inconclusive: 18.4 µM [falling, single point]"
O=C(c1cccs1)N1CCN(C2CCCCC2)CC1,inconclusive: -5.79%,–
O=C(Nc1cccc(S(=O)(=O)Nc2ccc(Cl)cc2)c1)c1ccc2c(c1)OCCO2,–,"inconclusive: 8.2 µM [activator, partial curve, poor fit]"

Compound,"lipid storage change, negative = inhibition",Potency
Cc1ccc(C(=O)c2cc3ccccc3o2)cc1[N+](=O)[O-],inconclusive: -66.6% [cytotoxic] [at 0.00295 µM],–
O=C(NCc1ccccc1)c1cccc(COc2ccccc2Cl)c1,–,"inconclusive: 29.1 µM [falling, single point]"
Cc1nn(CC(=O)N2CCN(c3ccccc3)CC2)c(=O)c2ccccc12,inconclusive: 16.5%,–
CCOC(=O)C1CCCN(S(=O)(=O)c2c(C)noc2C)C1 (configuration not stated),inconclusive: 21.1%,–
CCc1ccccc1NC(=O)CNC(=O)c1cc(C2CC2)nn1-c1ccccc1,inconclusive: 2.42%,–
COc1ccc(C(=O)COC(=O)CCNS(=O)(=O)c2ccccc2)cc1Br,–,"inconclusive: 0.517 µM [falling, full curve, poor fit]"
C=CCn1c(Cc2ccccc2)n[nH]c1=S,inconclusive: 39%,–
Cc1noc2ncnc(N3CCN(c4ccc(F)cc4)CC3)c12,inconclusive: 13.9%,–
Cc1cc(F)ccc1Oc1cc(NN2CCCCC2)c([N+](=O)[O-])cc1[N+](=O)[O-],inconclusive: 375%,–
CCc1c(C(C)O)oc2ccc3c(C)cc(=O)oc3c12 (configuration not stated),inconclusive: -25.8%,–
COc1ccc(NC(=O)N2CCC(Cc3ccccc3)CC2)cc1,inconclusive: -21.8%,–
O=C(O)CCSc1ccccn1,inconclusive: -12%,–
CC1(C)Cc2cccc(OCC(=O)NC3CC3)c2O1,inconclusive: -151%,–
CC12CC(NC(=O)N1c1cccc(C(=O)Nc3ncn[nH]3)c1)c1ccccc1O2 (configuration not stated),inconclusive: 9.49%,–
Cc1ccc(S(=O)(=O)NC2CCCc3ccccc32)cc1C (configuration not stated),–,"inconclusive: 6.51 µM [rising, single point]"
COc1cc(C)c(Cl)cc1S(=O)(=O)NCc1ccccn1,–,"inconclusive: 0.651 µM [falling, partial curve, poor fit]"
COc1ccc(-c2cc(C(F)(F)F)nc(N3CCN(C)CC3)n2)cc1,inconclusive: -62.4%,–
Cc1ccc(NS(=O)(=O)c2c(C(=O)N3CCCCCC3)c(C)n(C)c2C)c(Cl)c1,inconclusive: 3.75%,–
CCN(CC)CP(=O)(c1ccccc1)c1ccccc1,inconclusive: -50.2%,–
CCCCCO,–,"inconclusive: 23.1 µM [activator, single point]"
COc1ccc(C(CC(=O)O)NC(=O)C2CCCCC2)cc1 (configuration not stated),inconclusive: -49.9%,–
Cc1ccc(-c2nn(-c3ccc(F)cc3)cc2C(=O)NCC(c2cccs2)N2CCOCC2)cc1 (configuration not stated),inconclusive,–
COc1ccc(-n2nc3c(c2NC(=O)COc2ccccc2)CS(=O)(=O)C3)cc1,inconclusive: -11.5%,–
CCCCOc1ccc(NC(=O)CSCC(=O)OCC)cc1,inconclusive: -6.26%,–
O=C(COC(=O)C12CC3CC(CC(C3)C1)C2)Nc1ccc([N+](=O)[O-])cc1Cl,–,"inconclusive: 10.3 µM [falling, partial curve, poor fit]"
CCOCCCn1c(=S)[nH]c2cc(C(=O)N3CCOCC3)ccc2c1=O,–,"inconclusive: 29.1 µM [falling, single point]"

Compound,"lipid storage change, negative = inhibition",Potency
Cc1ccccc1NCC(=O)Nc1cc(S(=O)(=O)N2CCCCC2)ccc1C,–,"inconclusive: 5.8 µM [falling, full curve]"
O=C(c1ccc(=O)n(Cc2ccc(Cl)c(Cl)c2)c1)N1CCOCC1,inconclusive: 14.5%,–
Cc1nnc(NC(=O)CSc2nnc(C(C)NC(=O)c3ccccc3F)n2C)s1 (configuration not stated),–,"inconclusive: 20.6 µM [activator, partial curve, poor fit]"
Cc1scc(C(=O)NNC(=S)NC(C)c2ccccc2)c1C (configuration not stated),–,"inconclusive: 10.3 µM [activator, partial curve]"
O=C(CSc1ccccn1)N1CCOCC1,inactive,–
O=C(NCC1CCCO1)c1ccc(NC(=O)C2C3C=CC(C3)C2C(=O)O)cc1 (configuration not stated),inconclusive: 3.15%,–
O=C(CSc1nncn1-c1cccnc1)Nc1ccccc1C(F)(F)F,–,"inconclusive: 29.1 µM [activator, single point]"
Cc1ccc(CCNC(=O)C2CCC(=O)N(Cc3cccc(F)c3)C2)cc1 (configuration not stated),–,"inconclusive: 29.1 µM [activator, single point]"
COc1ccc(/C(C)=N\NC(=O)CNC(=O)C(c2ccccc2)c2ccccc2)cc1OC,inconclusive: -29.3%,–
Fc1cc(F)cc(NC(=S)N2CCN(c3ncccn3)CC2)c1,–,"inconclusive: 6.51 µM [falling, partial curve, poor fit]"
CCCCN(CCCC)c1nc(-c2ccncc2)nc2ccccc12,–,"inconclusive: 6.51 µM [activator, single point]"
COc1ccc(S(=O)(=O)n2nc(OC(=O)c3ccccc3)cc2N)cc1,inconclusive: 0.48%,–
COc1ccccc1CNC(=S)Nc1ccc(F)cc1,inconclusive: 56.1%,–
c1ccc(Oc2nc(Oc3ccccc3)nc(N3CCOCC3)n2)cc1,–,"inconclusive: 2.31 µM [activator, single point]"
Cc1cccc(NC(=O)C[n+]2ccccc2)c1,inconclusive: -3.2%,–
CCc1sc(C(=O)N2CCCN(C)CC2)cc1Br,inconclusive: 65.3%,–
CCCCn1c(N)c(N(CCC(C)C)C(=O)CN2C(=O)C3CCCCC3C2=O)c(=O)[nH]c1=O (configuration not stated),inconclusive: 19.9%,–
CC1CN(C(=O)c2ccc(COc3ccc4ccccc4c3)o2)CC(C)O1 (configuration not stated),inactive,–
Cn1cc(CN(CCCN2CCOCC2)C(=S)Nc2cccc(Cl)c2)c2ccccc21,inconclusive: -6.78%,–
Cc1ccc(N=Nc2c(O)[nH]c3ccc(F)cc23)cc1,–,active: 9.2 µM
O=C(COc1ccc(F)cc1)Nc1nnc(S(=O)(=O)N2CCCC2)s1,–,"inconclusive: 29.1 µM [activator, single point]"
COc1ccc(NC(=O)CN(C)C(=O)C2CCCO2)cc1 (configuration not stated),inconclusive: -21.1%,–
CCN(CC)S(=O)(=O)c1ccc2[nH]c(=O)cc(C(=O)Nc3ccc(C)cc3)c2c1,–,"inconclusive: 0.0046 µM [rising, full curve, poor fit]"
O=C(COC(=O)c1cccnc1Cl)c1ccc(F)cc1,inconclusive: -22.1%,–
COc1ccc(S(=O)(=O)N2CCCCCC2)cc1C(=O)N(C)Cc1ccc(C)cc1,inconclusive,–

# Ordered by SMILES length (high to low): part of the list above.
Compound,"lipid storage change, negative = inhibition",Potency
CCCCn1c(N)c(N(CCC(C)C)C(=O)CN2C(=O)C3CCCCC3C2=O)c(=O)[nH]c1=O (configuration not stated),inconclusive: 19.9%,–
O=C(COC(=O)C12CC3CC(CC(C3)C1)C2)Nc1ccc([N+](=O)[O-])cc1Cl,–,"inconclusive: 10.3 µM [falling, partial curve, poor fit]"
CCN(CC)S(=O)(=O)c1ccc2[nH]c(=O)cc(C(=O)Nc3ccc(C)cc3)c2c1,–,"inconclusive: 0.0046 µM [rising, full curve, poor fit]"
